The other results are listed elsewhere or left out. Shown are side measurements of this screen, not its main read-out; they come without a call. Compounds called inactive in the main read-out are mostly missing here. The note in brackets gives the kind of curve behind each potency; many fits are weak.

This note sets out measurements from PubChem BioAssay AID493014 (National Center for Advancing Translational Sciences (NCATS), 2011).

This assay can be described thus: qHTS Assay to Find Inhibitors of Chronic Active B-Cell Receptor Signaling. The following applies: ABC-DLBCL IkBa-CBG/CBR reporter, luminescence ratio (green luciferase fused to IkBa over red control in TMD8 lymphoma cells), 4 h. In a few lines:
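Doxycycline induced both beetle luciferases in TMD8 lymphoma cells; IKK-driven degradation limits the IkappaBalpha-fused green signal, while red luminescence normalises for cell number and nonspecific effects. Compounds tested up to 46 uM, 4 hrs.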
Background: qHTS replaces the single test concentration by a dilution series.

Setting [1] is: measured here: CBR red luminescence, cell number.
The mark [2] stands for this setting: measured here: IkBa-CBG green luminescence.

Turning to `O=C(CCC(=O)c1ccc(F)cc1)Nc1cccc(S(=O)(=O)Nc2cccc(Cl)c2)c1`, the AC50 under setting [1] is 23.1 µM [falling, partial curve]. As to `CCOc1ccc(N2C(=O)S/C(=C\c3ccc(O)c(OC)c3)C2=O)cc1`, the concentration at half-maximal activity (AC50) under setting [1] is 11.2 µM [rising, partial curve, poor fit]. On the same count and under the same terms, then `Cc1nnc(OCc2nc3ccccc3n2C)c2ccccc12`, with 8.2 µM [falling, partial curve]; and `COc1ccc(Nc2ncnc3sc(C)cc23)cc1`, with 0.891 µM [rising, full curve, poor fit]. Take `CCc1ccc(NC(=S)N(CCOC)C2CCN(C(C)=O)CC2)cc1`: under setting [1], the AC50 is 22.4 µM [falling, single point].

For `COc1cccc(CN(C(=O)/C=C/c2ccc(Cl)cc2)C2CCS(=O)(=O)C2)c1` (stereo not drawn), the AC50 under setting [1] was 0.447 µM [rising, full curve, poor fit].

On to `COc1ccc2c(-c3ccccc3)cc(=O)[nH]c2c1`, for which the AC50 under setting [1] was 1.64 µM [rising, partial curve, poor fit]. Still for that read-out and setting: then `Nc1nc(CSc2ccccc2)nc(N2CCCCC2)n1`, with 0.501 µM [rising, full curve, poor fit]; and `O=C(CSc1nnc2ccc(-c3ccncc3)nn12)Nc1ccc(F)cc1`, with 14.6 µM [falling, partial curve, poor fit]. For `O=C(C1=C[C@@H](C2CCCCC2)C[C@@H](OCc2ccc(CO)cc2)O1)N1CCN(Cc2ccc3c(c2)OCO3)CC1`, the AC50 under setting [1] was 11.2 µM [falling, single point]. Turning to `Cc1ccc(Nc2cc(C(=O)NCCCN3CCOCC3)c3ccccc3n2)c(C)c1`, the AC50 is 6.31 µM [falling, full curve] under setting [1] and 12.6 µM [rising, partial curve, poor fit] under setting [2]. With `O=C(Nc1cccnc1)c1ccc2ccccc2c1O`, the AC50 under setting [1] is 8.91 µM [falling, partial curve].

For the compound `Clc1ccccc1-c1ccc2ncnc(NCc3cccs3)c2c1`, the AC50 is 23.1 µM [falling, single point] under setting [1] and 29.1 µM [rising, partial curve, poor fit] under setting [2]. In the case of `Oc1cccc2ccc(/C=C/c3cccs3)nc12`, the AC50 under setting [1] is 29.1 µM [falling, single point] and the AC50 under setting [2] was 20.6 µM [falling, single point]. In the case of `C=CCNC(=S)NNC(=O)COc1c(Cl)cc(Cl)cc1Cl`, the AC50 reads like this: under setting [1], 29.1 µM [falling, single point]; under setting [2], 18.4 µM [falling, single point]. Take `O=C(CCCCCN1C(=O)[C@@H]2Cc3ccccc3CN2C1=O)N[C@@H](Cc1ccc(O)cc1)C(=O)O`: the AC50 under setting [1] was 2.24 µM [falling, full curve]. Still for that read-out and setting: to `COc1ccc(/C(C)=N\Nc2nc(-c3ccccc3)cc(=O)[nH]2)cc1` belongs 7.31 µM [falling, partial curve]; to `C/C(=N/NC(=O)c1ccccn1)c1ccco1`, 35.5 µM [falling, single point].

Turning to `CC(=O)c1c(C)oc2ccc(N(C(C)=O)S(=O)(=O)c3ccc(Cl)c([N+](=O)[O-])c3)cc12`, the AC50 under setting [1] is 10 µM [falling, partial curve].

Take `CCOC(=O)c1cnc2ccccc2c1NCCc1ccc(OC)c(OC)c1`: the AC50 under setting [1] is 11.2 µM [falling, partial curve, poor fit]. Consider `COc1ccc(NS(=O)(=O)c2cccc(C(=O)NNC(=O)CNC(=O)c3cccc(C)c3)c2)cc1`, for which the AC50 under setting [1] is 25.1 µM [rising, partial curve, poor fit].

Consider `C[C@H](CO)N1C[C@H](C)[C@@H](CN(C)S(C)(=O)=O)Oc2ccc(NC(=O)C3CCCCC3)cc2C1=O`, for which, under setting [1], the AC50 is 29.1 µM [rising, single point].

For `O=C(CSc1n[nH]c(-c2ccncc2)n1)Nc1ccccc1C(F)(F)F`, the AC50 under setting [1] was 7.94 µM [falling, partial curve, poor fit]. Same read-out and setting: to `O=C(OCCN=C1NS(=O)(=O)c2ccccc21)c1ccncc1` belongs 0.184 µM [falling, full curve, poor fit]; to `CCOc1ccccc1N(CC(=O)Nc1ccccc1C(=O)NCc1ccco1)S(C)(=O)=O`, 0.103 µM [rising, full curve, poor fit]. Same read-out and setting: to `CCOc1ccc(N=Nc2cc(C(C)C)ccc2O)cc1` belongs 5.8 µM [rising, partial curve, poor fit]; to `Cc1ccc(S(=O)(=O)Nc2nc3ccccc3nc2NCc2ccco2)cc1C`, 3.16 µM [falling, partial curve, poor fit]. Consider `O=C1COc2ccc(N3C(=O)C=CC3=O)cc2N1`, for which the AC50 is 35.5 µM [falling, single point] under setting [1] and 12.6 µM [rising, partial curve, poor fit] under setting [2]. Turning to `COCCN(C(=O)c1csnn1)C(C(=O)NC(C)(C)C)c1cccc(OC)c1` (stereo not drawn), the AC50 under setting [1] was 4.11 µM [rising, single point]. Turning to `Cc1onc(-c2ccccc2Cl)c1C(=O)Oc1cccc2cccnc12`, under setting [2], the AC50 was 22.4 µM [falling, single point]. Turning to `O=c1[nH]c(-c2ccccn2)nc2ccccc12`, the AC50 under setting [1] was 35.5 µM [rising, single point] and the AC50 under setting [2] was 28.2 µM [falling, single point]. Take `CCc1ccc2c(c1)C1(NN=C(c3cccc4ccccc34)S1)C(=O)N2` (stereo not drawn): the AC50 under setting [1] is 5.17 µM [falling, full curve].

For `CC(C)(C#CC(O)(c1ccccc1)c1ccccc1)N1CCCCC1`, under setting [1], the AC50 was 5.62 µM [falling, partial curve, poor fit].

Consider `O=S(=O)(NCc1cc(-c2ccccc2Cl)no1)c1ccccc1`, for which the AC50 under setting [1] was 0.112 µM [rising, full curve, poor fit]. Take `CC(=O)Nc1cccc(NS(=O)(=O)c2cc3c4c(c2)CCN4C(=O)CC3)c1`: the AC50 under setting [1] is 32.6 µM [rising, partial curve, poor fit]. For `CCOC(=O)C(c1ccccc1)N1CCN(c2ccc(OC)cc2)CC1` (stereo not drawn), the AC50 under setting [1] was 3.55 µM [rising, partial curve, poor fit]. `CC(OC(=O)/C=C/c1ccc2ccccc2n1)C(=O)N(C)c1ccccc1` (stereo not drawn): the AC50 under setting [1] was 3.26 µM [rising, partial curve, poor fit].

In the case of `Cc1ccc(NC2CCCN(C(=O)CCC3=NNC(=O)CC3)C2)cc1C` (stereo not drawn), the AC50 under setting [1] is 1.26 µM [rising, full curve, poor fit]. On the same count and under the same terms, to `C=CC(C)(C)c1cc2cc3ccoc3cc2oc1=O` belongs 4.11 µM [rising, full curve, poor fit]; to `O=C(CCc1c[nH]c2ccccc12)OCC(=O)N1CCN(S(=O)(=O)c2ccccc2)CC1`, 29.1 µM [rising, single point]. The same measure, in the same setting: then `O=C(CN1CC(=O)Nc2ccccc21)Nc1ccc(F)c(F)c1`, with 7.08 µM [falling, partial curve]. Still for that read-out and setting: to `O=C(O)CCNc1nc(C(F)(F)F)nc2ccccc12` belongs 10 µM [rising, partial curve, poor fit]; to `O=C(O)c1cc(-c2ccc3c(c2)OCO3)nc2ccc(Cl)cc12`, 17.8 µM [falling, partial curve, poor fit].

With `Cc1cccc(OCc2nnc(SCC(=O)N(C(C)C)C(C)C)n2Cc2ccco2)c1C`, under setting [1], the AC50 was 15.8 µM [falling, single point].

On to `COc1ccc(C2CC(=O)c3cnc(NC(=O)c4cccc(OC)c4)nc3C2)cc1` (stereo not drawn), for which the AC50 under setting [1] is 0.794 µM [falling, full curve, poor fit]. Turning to `CCN(CC)c1ccc(C(=O)NNC(=O)CCl)cc1`, the AC50 under setting [1] is 0.447 µM [falling, partial curve, poor fit].

Regarding `CCc1cc(C(=O)NNC(=S)Nc2cccc(C)c2)cs1`, the AC50 under setting [1] was 25.9 µM [falling, partial curve, poor fit].

As to `Fc1ccc(Cn2cccc2C2=NC(c3ccccc3)CO2)cc1` (stereo not drawn), the AC50 under setting [1] was 3.98 µM [rising, partial curve]. On the same count and under the same terms, then `COc1ccc(-c2sc3cc4c(cc3c2C#CC2(O)CCCCC2)OCO4)cc1`, with 23.1 µM [rising, partial curve]. On the same count and under the same terms, to `COc1ccc(NC(=O)C2CCCN(S(=O)(=O)c3cccc4cccnc34)C2)cc1OC` (stereo not drawn) belongs 6.51 µM [rising, full curve, poor fit].

As to `Cc1ccc(Nc2nc(N)c3ccccc3n2)cc1Cl`, the AC50 under setting [1] was 14.1 µM [falling, single point]. Same read-out and setting: then `CCOc1ccc(C(=O)Nc2cccc(SC)c2)cc1`, with 0.92 µM [falling, full curve, poor fit]; and `Cc1cc(Cl)c2oc(C(=O)N(C)Cc3ccon3)c(C)c2c1`, with 7.94 µM [rising, partial curve]; and `Cc1c(/C=N/NC(=O)c2cccnc2)c2ccccc2n1Cc1ccccc1`, with 25.1 µM [falling, single point]. For the compound `Cc1cc(C(=O)NN=C2C3CC4CC(C3)CC2C4)c2ccccc2n1`, the AC50 was 31.6 µM [rising, single point] under setting [1] and 22.4 µM [falling, single point] under setting [2]. Take `CCOc1ccccc1NC(=O)CN(C)S(=O)(=O)c1ccc(OC)c(C)c1`: the AC50 under setting [1] is 2.31 µM [rising, single point].

Turning to `Cc1ccccc1Oc1nc2ccccc2n2cnnc12`, the AC50 under setting [1] was 5.01 µM [rising, full curve, poor fit]. Same read-out and setting: then `O=c1c2cc([N+](=O)[O-])ccc2nc(CN2CCN(c3ccccn3)CC2)n1-c1ccccc1F`, with 0.562 µM [rising, full curve, poor fit]; and `O=C(NCc1ccco1)c1cccc(N2CCCC2=O)c1`, with 11.6 µM [falling, partial curve, poor fit].

Consider `O=C(O)c1ccccc1NC(=S)NC(=O)c1sc2ccccc2c1Cl`, for which the concentration at half-maximal activity (AC50) under setting [1] was 35.5 µM [falling, partial curve, poor fit]. On the same count and under the same terms, to `COc1ccc(-c2nn(-c3ccccc3)cc2/C=N/NC(=O)c2cccc(S(=O)(=O)Nc3ccccc3Cl)c2)cc1` belongs 9.2 µM [rising, partial curve].

As a reminder, the AC50 is the concentration at which the activity in the assay is half-maximal.
